For 60 compounds, AC50 results are on record in PubChem BioAssay AID493014 (National Center for Advancing Translational Sciences (NCATS), 2011).

This assay can be described thus: qHTS Assay to Find Inhibitors of Chronic Active B-Cell Receptor Signaling. The following applies: ABC-DLBCL IkBa-CBG/CBR reporter, luminescence ratio (green luciferase fused to IkBa over red control in TMD8 lymphoma cells), 4 h. The procedure, abridged:
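TMD8 human ABC-DLBCL cells with doxycycline-inducible IκBα–green luciferase fusion and unfused red luciferase, in 0.5% FBS medium; compounds up to 46 uM, 4 h at 37C. Green/red luminescence ratio, filter-overlap corrected, fitted to concentration-response curves.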
In general terms: In qHTS, concentration-response curves come from the screen itself.

[1] abbreviates: measured here: CBR red luminescence, cell number.
The mark [2] stands for this setting: measured here: IkBa-CBG green luminescence.

Molecules are shown by their SMILES. The list shows a part of the results. These are further read-outs of the screen, such as a control signal, another cell line or another target. No call is given for them. The list favours compounds with an active or inconclusive main result. The note in brackets gives the kind of curve behind each potency; many fits are weak.

Take `CCCCCC(=O)N/N=C(\C)c1ccccn1`: the AC50 (in general, the midpoint of the concentration-response curve, whichever way the signal moves) under setting [1] is 4.11 µM [rising, full curve, poor fit].
Take `O=C(NN1C(=O)c2ccccc2NC1c1ccccc1OCc1ccccc1)c1ccncc1` (stereo not given): the concentration at half-maximal activity (AC50) under setting [1] was 0.731 µM [rising, partial curve, poor fit].
Same read-out and setting: the result for `COc1cc(C(=O)NCCc2ccc3c(c2)OCCO3)ccc1OCC(=O)N1CCOCC1` reads 35.5 µM [falling, partial curve, poor fit]; that for `CC(=O)N1CCc2c(sc(NC(=O)c3ccc4c(c3)OCCO4)c2C#N)C1`, 1.64 µM [rising, full curve, poor fit].
Still for that read-out and setting: under `CC(=O)N/C(=C\c1ccccc1)C(=O)OCC(=O)Nc1cc(S(=O)(=O)N(C)C)ccc1Cl` stands 7.31 µM [rising, partial curve, poor fit].
Same read-out and setting: the result for `COc1cc2nc(CN3CCN(S(=O)(=O)c4ccccc4C(F)(F)F)CC3)[nH]c(=O)c2cc1OC` reads 1.64 µM [rising, partial curve, poor fit]; that for `O=C(Cc1ccccc1)NC(=S)Nc1ccc2oc(-c3ccccc3F)nc2c1`, 0.794 µM [rising, full curve, poor fit]; that for `CCOC(=O)C1=NNC(C(=O)c2ccc(C)cc2)C1c1ccc(OC)cc1` (stereo not given), 2.59 µM [falling, full curve, poor fit].
As to `O=C(O)COc1ccccc1/C=N/NC(=O)CSc1nnc(-c2ccc(Cl)cc2)n1C1CCCCC1`, the AC50 under setting [1] was 12.6 µM [falling, partial curve].
The same measure, in the same setting: under `O=C(N/N=C/c1ccc([N+](=O)[O-])o1)c1cc2c(ccc3ccccc32)o1` stands 8.91 µM [falling, partial curve, poor fit].
The same measure, in the same setting: the result for `CCCCOc1ccc(OC(=O)c2sc3ncn(Cc4cccc(F)c4)c(=O)c3c2C)cc1` reads 11.2 µM [rising, partial curve]; that for `N#Cc1ccccc1Oc1ccc(S(=O)(=O)N2CCCCC2)cn1`, 32.6 µM [falling, partial curve, poor fit]; that for `Cc1ccc(C)c(-c2nnc(NC(=O)c3ccc([N+](=O)[O-])o3)o2)c1`, 18.4 µM [falling, partial curve, poor fit].
Same read-out and setting: under `Cc1nnc2sc(SCc3ccccc3)nn2c1=O` stands 11.6 µM [falling, partial curve, poor fit].
For the compound `COc1ccccc1NC(=S)NNC(=S)Nc1ccc(OC(F)F)cc1`, the AC50 under setting [1] is 10.3 µM [falling, partial curve].
On the same count and under the same terms, under `CCCCCNC(=O)c1c[nH]c2ccc(S(=O)(=O)N3CCC(C)CC3)cc2c1=O` stands 20 µM [rising, single point]; under `Cc1cc(NC(=O)CCC(=O)N(Cc2ccco2)C2(C(=O)NC3CCCC3)CCC(C)CC2)no1` (stereo not given), 35.5 µM [falling, single point].
Still for that read-out and setting: under `Cc1nnnn1/C(=C\c1ccccc1)C(=O)OCC(=O)NC(C)(C)C` stands 6.51 µM [falling, full curve]; under `COc1cc(/C=C2\SC(=O)N(CC(=O)Nc3cccc(C)c3)C2=O)cc([N+](=O)[O-])c1O`, 3.98 µM [falling, single point]; under `CCN1CCN(Cc2nc3c(c(=O)n(C)c(=O)n3C)n2CCc2ccccc2)CC1`, 2.59 µM [rising, partial curve, poor fit].
Still for that read-out and setting: under `Cc1cc(C)c(CN2CCN(C(=O)Cn3cnc4c(NCc5ccccc5)ncnc43)CC2)c(C)c1` stands 5.8 µM [falling, partial curve, poor fit]; under `CCN(Cc1ccncc1)C(=O)C1CCN(S(=O)(=O)c2cccs2)CC1`, 18.4 µM [rising, single point].
`CCOc1ccc(NC(=S)N=Nc2c(O)[nH]c3ccccc23)cc1`: the concentration at half-maximal activity (AC50) runs as follows: under setting [1], 3.98 µM [rising, single point]; under setting [2], 5.62 µM [falling, single point].
Consider `O=C(CSc1nnnn1C1CCCCC1)Nc1cccc(NC(=O)c2ccco2)c1`, for which, under setting [1], the AC50 was 2.31 µM [falling, full curve].
Turning to `CCN1CCN(c2nc(Nc3cc(OC)ccc3OC)nc(Nc3cc(OC)ccc3OC)n2)CC1`, the AC50 under setting [1] is 0.447 µM [rising, full curve, poor fit].
In the case of `Cc1nn(-c2ccc(Cl)cc2Cl)c(=O)c2ccccc12`, the AC50 under setting [1] is 13 µM [rising, partial curve, poor fit].
For `Cc1[nH]c2ccccc2c1SCC(=O)N1CCOCC1`, the AC50 under setting [1] was 8.2 µM [falling, partial curve].
In the case of `CCCc1c(C(=O)Nc2ccc(F)cc2)cnn1-c1ccccc1`, the AC50 under setting [1] is 11.2 µM [falling, partial curve].
The same measure, in the same setting: the result for `CC(NCC(=O)Nc1ccccc1C(=O)NC1CC1)c1ccc(S(C)(=O)=O)cc1` (stereo not given) reads 16.4 µM [rising, single point].
Turning to `Cn1c(=O)c2c(SCC(=O)N3CCOCC3)nc(-c3ccccc3Cl)nc2n(C)c1=O`, the AC50 is 14.1 µM [falling, single point] under setting [1] and 22.4 µM [rising, single point] under setting [2].
Turning to `O=c1oc2ccccc2c(O)c1/C=N/c1ccccn1`, the AC50 under setting [1] is 1.58 µM [falling, full curve].
As for `COc1cccc(CN2CCNC(=O)C2CC(=O)N(C)CCC2CCOCC2)c1OC` (stereo not given), the AC50 under setting [1] was 0.891 µM [rising, full curve, poor fit].
Still for that read-out and setting: the result for `CCOc1ccc(NC(=O)CN(C)C(=O)c2cc(C3CC3)nn2-c2ccccc2)cc1OCC` reads 18.4 µM [falling, partial curve, poor fit].
Same read-out and setting: under `c1ccc(CCNc2ncnc3nc[nH]c23)cc1` stands 14.6 µM [falling, partial curve, poor fit]; under `C/C(=N/NC(=O)c1ccccc1O)c1ccc(N2C(=O)C3CCCCC3C2=O)cc1` (stereo not given), 10 µM [falling, partial curve]; under `O=C(Nc1nc(-c2ccccc2)cs1)C1CCCO1` (stereo not given), 6.51 µM [falling, single point].
Same read-out and setting: the result for `COC(=O)c1ccccc1NC(=S)NC(NC(=O)c1ccccc1[N+](=O)[O-])C(Cl)(Cl)Cl` (stereo not given) reads 35.5 µM [falling, single point].
On to `COC(=O)c1cc(C(=O)N2CCOCC2)cc([N+](=O)[O-])c1`, for which the AC50 under setting [1] is 3.98 µM [rising, single point].
Turning to `CC(=O)c1c(C)nc(-c2ccc(OCC(=O)Nc3ccccc3)cc2)n1O`, the AC50 by setting is: under setting [1], 15.8 µM [falling, partial curve, poor fit]; under setting [2], 12.6 µM [rising, partial curve, poor fit].
Take `CCCN1CCc2c(sc3nc(SCC)n(-c4ccc(OC)cc4)c(=O)c23)C1`: under setting [1], the AC50 is 10 µM [rising, partial curve, poor fit].
Same read-out and setting: under `CCN(CC)S(=O)(=O)c1ccc2c(c1)N(CC(=O)NCCc1ccc(OC)c(OC)c1)C(=O)CO2` stands 2.51 µM [rising, partial curve, poor fit]; under `Cc1ccc(NC(=O)NC2CC(=O)N(c3ccc4c(c3)OCCO4)C2)cc1C` (stereo not given), 16.4 µM [falling, single point]; under `COc1ccc(CN(C2CCCCC2C)S(=O)(=O)c2ccc(S(=O)(=O)N(C)C)cc2)cc1OC` (stereo not given), 29.1 µM [rising, single point].
Same read-out and setting: the result for `CCOC(=O)C1=CN(Cc2cccc(F)c2)S(=O)(=O)N(CC)C1c1ccc(F)c(Cl)c1` (stereo not given) reads 9.2 µM [falling, partial curve]; that for `CCCC(c1c(C)n(C)n(-c2ccccc2)c1=O)c1c(C)n(C)n(-c2ccccc2)c1=O`, 35.5 µM [rising, single point].
Still for that read-out and setting: the result for `N#CC(C#N)=Cc1c(N2CCN(c3ccccc3)CC2)nc2ccccn2c1=O` reads 15.8 µM [rising, single point].
With `CCCCN1C(=O)C(C)=C(C)C1OCCc1ccc(OC)c(OC)c1` (stereo not given), the AC50 under setting [1] was 35.5 µM [rising, single point].
On the same count and under the same terms, the result for `Cn1c(=O)c2c(SCc3cccnc3)nc(C3CC3)nc2n(C)c1=O` reads 0.206 µM [falling, full curve, poor fit]; that for `Cc1cc(C(=O)N/N=C/c2ccc([N+](=O)[O-])s2)n[nH]1`, 3.55 µM [rising, single point]; that for `O=C(NNC1=C(C(=O)C(F)(F)F)CCC1)c1ccccc1Cl`, 5.17 µM [falling, partial curve, poor fit].
In the case of `O=C(Nc1ccccc1F)c1ccc2ncsc2c1`, the concentration at half-maximal activity (AC50) under setting [1] is 11.2 µM [falling, partial curve, poor fit].
On to `S=C(NCc1ccc2[nH]c3c(c2c1)CCCC3)Nc1ccccc1`, for which the half-maximal activity concentration (AC50) is, setting by setting: under setting [1], 14.6 µM [falling, partial curve]; under setting [2], 18.4 µM [falling, partial curve].
As for `O=C(O)/C=C\c1cn(-c2ccccc2)nc1-c1cc2ccccc2o1`, the AC50 under setting [1] is 35.5 µM [falling, single point].
`CC(=O)c1ccc(OCCCOc2cccc3cccnc23)cc1`: the AC50 under setting [1] was 5.01 µM [rising, partial curve].
On the same count and under the same terms, under `Cc1cccc(-n2ncc3c(N(C)C4CCCCC4)ncnc32)c1` stands 11.2 µM [rising, partial curve, poor fit].
Turning to `COC1(OC)C(/C=C/c2ccc(Cl)cc2)C(C#N)(C#N)C1(OC)OC` (stereo not given), the AC50 under setting [1] is 5.17 µM [falling, full curve] and the half-maximal activity concentration (AC50) under setting [2] is 6.51 µM [rising, partial curve].
Regarding `Cc1ccc(-c2ccc(C(=O)Nc3cccc(F)c3)o2)c2ccccc12`, the AC50 under setting [1] is 23.1 µM [falling, single point].
Still for that read-out and setting: the result for `O=C(CN1CCOCC1)NNC(=O)c1ccc(Cl)cc1` reads 25.9 µM [rising, single point]; that for `Cc1ccc(C)c2[nH]c(=O)c(CN(CC3CCCO3)C(=S)NCc3ccco3)cc12` (stereo not given), 35.5 µM [falling, single point].
On the same count and under the same terms, the result for `O=S(=O)(c1cccc(-c2nnc(SCc3nc4ccccc4s3)o2)c1)N1CCOCC1` reads 35.5 µM [falling, single point].
